Laboratory results from patent US20070298445, “Cancer Therapeutic” (published 2007).

Chains of the proteins cited; added tags and fusions are not shown. Lines headed by an entry give the natural chain unless they say otherwise; changes in a name come on top.
UniProt Q9BRR0: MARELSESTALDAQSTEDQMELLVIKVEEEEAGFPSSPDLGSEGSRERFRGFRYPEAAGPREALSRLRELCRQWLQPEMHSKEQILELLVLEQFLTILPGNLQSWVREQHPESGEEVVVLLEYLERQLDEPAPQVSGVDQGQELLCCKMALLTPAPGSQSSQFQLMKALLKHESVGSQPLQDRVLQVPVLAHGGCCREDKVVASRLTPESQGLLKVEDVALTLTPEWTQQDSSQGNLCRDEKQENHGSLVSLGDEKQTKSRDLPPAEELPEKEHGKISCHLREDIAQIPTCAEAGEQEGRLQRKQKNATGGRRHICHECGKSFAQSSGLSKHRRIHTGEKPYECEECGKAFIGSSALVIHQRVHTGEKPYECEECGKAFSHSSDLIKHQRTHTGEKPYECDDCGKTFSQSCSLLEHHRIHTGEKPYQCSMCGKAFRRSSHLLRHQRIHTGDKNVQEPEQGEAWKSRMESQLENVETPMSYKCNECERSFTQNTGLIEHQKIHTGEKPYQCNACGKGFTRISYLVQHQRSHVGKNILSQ

Legend:
ZNF306 [1] = target: ZNF306 (UniProt Q9BRR0); assay: EMSA; conditions: 10 ug nuclear extract, 0.6 ug poly dI/dC; supershifted by anti-ZNF306; only core site printed; protein in an extract
ZNF306 [2] = target: ZNF306 (UniProt Q9BRR0); assay: binding assay; conditions: ChIP with anti-ZNF306, primers flanking the motif; protein in cells; protein details: expression plasmid or cDNA in colon cancer cells

TGAGGGG (double strand) [integrin beta4 intron 1 wt probe]
binding result (ZNF306 [1]): binds
binding result (ZNF306 [2]): binds

At least one result comes from cells or an extract, where the contact may be indirect. For some assays here: For at least one entry, the source does not settle the construct or the ends of the probe.
